Data as given in PubChem BioAssay AID1508588 (Peter MacCallum Cancer Centre, 2020)
Shown is a random part of about 18,000 deposited reagents. 790 of them (4.4%) count as active. 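Calls rest on a combination of fold-change classes in drug and vehicle arms, not all shown here.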 Entries without a mark were called inactive.

Purpose: 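Knock-downs boosting vemurafenib effects on melanoma cell growth or lactate release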 (primary screen)
Cells: human WM266.4 melanoma cells (BRAF V600 mutant)
Knock-down reagent: siRNA pool against human genes, 40 nM
Time to read-out: 96 h from transfection to read-out
Treatment: vemurafenib 300 nM (about IC25), added 48 h after transfection, for 48 h; comparison arm got DMSO vehicle only
Detection: 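Cell gain (DAPI nuclei at end minus before drug, mean of two replicates) and medium lactate by absorbance per cell, both as ratio to non-targeting siRNA, also grouped into fold-change classes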
Direction: cell gain with vemurafenib: higher = more cell gain than with non-targeting siRNA; lactate per cell with vemurafenib: higher = more lactate made per cell
Active means: 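Enhancement is called by pairing each knock-down's vehicle-arm and drug-arm fold-change classes for viability or glycolysis; which class combinations qualify is not given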
Calls: active = enhances vemurafenib effect; inactive = no enhancement seen

Gene | cell gain with vemurafenib | lactate per cell with vemurafenib
LXN (GeneID 56925) | 0.44 | 1.35
MCOLN2 (GeneID 255231) | 0.56 | 1.7
MRPL34 (GeneID 64981) | 0.01 | 1.94
NADSYN1 (GeneID 55191) | 0.69 | 0.6
ABCD3 (GeneID 5825) | 0.95 | 0.44
LOC401052 (retired record) (GeneID 401052) | 0.89 | 1.1
OR8G2P (GeneID 26492) | 0.93 | 0.96
SLC12A3 (GeneID 6559) | 0.24 | 1.12
ADAM10 (GeneID 102) | 0.23 | 1.5
OR10J3 (GeneID 441911) | 0.38 | 1.36
LILRB3 (GeneID 11025) | 0.49 | 1.21
THAP11 (GeneID 57215) | 0.39 | 1.68
LINC01600 (GeneID 154386) | 0.37 | 1.1
TSPAN3 (GeneID 10099) | 0.62 | 0.64
DVL1 (GeneID 1855) | 0.92 | 0.46
ZNF562 (GeneID 54811) | 0.45 | 1.98
G0S2 (GeneID 50486) | 0.68 | 0.69
FAM81A (GeneID 145773) | 0.64 | 1.28
EPHA8 (GeneID 2046) | 0.22 | 1.94
TGIF2LX (GeneID 90316) | 0.51 | 1.84
C1orf35 (GeneID 79169) | 0.4 | 1.79
GARIN3 (GeneID 153745) | 0.74 | 0.75
STAC (GeneID 6769) | 0.31 | 1.05
PPP3CB (GeneID 5532) | 0.52 | 0.88
RAPGEF3 (GeneID 10411) | 0.01 | 0.57
ACSM5 (GeneID 54988) | 0.24 | 1.07
SGMS1 (GeneID 259230) | 0.51 | 1.29
RCBTB1 (GeneID 55213) | 0.85 | 0.46
ZNF22 (GeneID 7570) | 0.78 | 0.66
FNBP1 (GeneID 23048) | 1.05 | 0.7
DOC2A (GeneID 8448) | 0.66 | 1.44
TSEN34 (GeneID 79042) | 0.37 | 0.8
TRIM54 (GeneID 57159) | 1.02 | 0.86
MYOF (GeneID 26509) | 0.13 | 1.01
PTN (GeneID 5764) | 0.72 | 0.82
KCTD2 (GeneID 23510) | 0.67 | 0.95
NKAIN2 (GeneID 154215) | 1.01 | 0.66
TSSK4 (GeneID 283629) | 0.67 | 0.64
CHAC1 (GeneID 79094) | 0.59 | 0.57
PIK3CB (GeneID 5291) | -0.19 | 1.58
NHLRC3 (GeneID 387921) | 0.88 | 0.31
B4GALT3 (GeneID 8703) | 1.34 | 0.88
IGFL3 (GeneID 388555) | -0.11 | 1.17
RFXANK (GeneID 8625) | -0.04 | 1.46
MAST2 (GeneID 23139) | 0.66 | 1.25
CLEC6A (GeneID 93978) | 0.12 | 1.34
GPRIN1 (GeneID 114787) | 0.69 | 0.68
SRSF3 (GeneID 6428) | -0.06 | 2.73
FBN1 (GeneID 2200) | 0.59 | 0.84
SNX9 (GeneID 51429) | 0.56 | 0.8
KTI12 (GeneID 112970) | 0.66 (active) | 0.46
AP5B1 (GeneID 91056) | 1.1 | 0.46
BPTF (GeneID 2186) | 0.8 | 0.38
FOXD1 (GeneID 2297) | 0.18 | 0.52
CRK (GeneID 1398) | 0.3 | 2.47
RHOD (GeneID 29984) | 0.53 | 0.24
CGN (GeneID 57530) | 0.88 | 0.84
DEFB125 (GeneID 245938) | 0.89 | 0.39
NECAB3 (GeneID 63941) | 1.06 | 1.01
MYL12B (GeneID 103910) | 1.02 | 0.58
IGLL3P (GeneID 91353) | 0.82 | 0.83
ASB6 (GeneID 140459) | 0.36 | 1.02
STX8 (GeneID 9482) | -0.01 | 2.94
ODAD2 (GeneID 55130) | 0.97 | 0.94
GTF2H2C_2 (GeneID 730394) | 0.6 | 1.19
CFAP100 (GeneID 348807) | 0.91 | 0.75
FSIP1 (GeneID 161835) | 0.79 (active) | 0.48
GPR21 (GeneID 2844) | 0.56 | 1.1
GLIS1 (GeneID 148979) | 0.73 | 0.69
CYB5D1 (GeneID 124637) | 0.87 | 1.08
NAA60 (GeneID 79903) | 0.54 | 1.23
PRLH (GeneID 51052) | 0.32 | 1.04
FCN2 (GeneID 2220) | 0.91 | 1.58
A1BG (GeneID 1) | 0.46 (active) | 0.45
CPLX2 (GeneID 10814) | 0.48 | 1.15
TYW3 (GeneID 127253) | 0.59 | 0.42
NUDT16 (GeneID 131870) | 0.62 | 0.9
POLR2H (GeneID 5437) | 0.44 | 1.01
DGCR2 (GeneID 9993) | 0.64 | 0.78
BTF3L4 (GeneID 91408) | 0.97 | 0.57
DDHD2 (GeneID 23259) | 0.57 | 1.65
SLC2A2 (GeneID 6514) | 0.28 | 1.19
DOK4 (GeneID 55715) | 0.55 | 0.86
C1QTNF7 (GeneID 114905) | 0.22 | 1.1

14 entries from above, sorted by “cell gain with vemurafenib”, lowest first:
Gene | cell gain with vemurafenib | lactate per cell with vemurafenib
RAPGEF3 (GeneID 10411) | 0.01 | 0.57
EPHA8 (GeneID 2046) | 0.22 | 1.94
ACSM5 (GeneID 54988) | 0.24 | 1.07
STAC (GeneID 6769) | 0.31 | 1.05
C1orf35 (GeneID 79169) | 0.4 | 1.79
ZNF562 (GeneID 54811) | 0.45 | 1.98
TGIF2LX (GeneID 90316) | 0.51 | 1.84
SGMS1 (GeneID 259230) | 0.51 | 1.29
PPP3CB (GeneID 5532) | 0.52 | 0.88
TSPAN3 (GeneID 10099) | 0.62 | 0.64
FAM81A (GeneID 145773) | 0.64 | 1.28
G0S2 (GeneID 50486) | 0.68 | 0.69
GARIN3 (GeneID 153745) | 0.74 | 0.75
DVL1 (GeneID 1855) | 0.92 | 0.46
